Data as given in patent publication US7767693B2, “Hsp90 family protein inhibitors” (Kyowa Hakko Kirin Co., Ltd., priority 2003, dated 2010).
Some of these results come from one statement about several compounds together.

Target: T1, Human N-terminal recombinant Hsp90 protein (region of amino acids 9 to 236) (Homo sapiens, UniProt P07900)
T1 construct: region of amino acids 9 to 236; made in house
Experiment: Hsp90 Protein Binding Assay
Conditions: at concentrations below 10 μmol/L; competition with biotinylated Radicicol 0.1 μmol/L, immobilized Hsp90, time-resolved fluorescence

SMILES | inhibited the binding of biotinylated Radicicol to the Hsp90 protein
CCc1c(O)cc(O)c(C(=O)c2ccccc2)c1CC(=O)N(CCO)CCOC [Compound 77, 2-[2-benzoyl-6-ethyl-3,5-dihydroxyphenyl]-N-(2-hydroxyethyl)-N-(2-methoxyethyl)acetamide] | more than 30%
CCc1c(O)cc(O)c(C(=O)c2ccccc2)c1CC(=O)N1CCC(CO)CC1 [Compound 78, 2-[2-benzoyl-6-ethyl-3,5-dihydroxyphenyl]-1-[4-(hydroxymethyl)piperidino]ethanone] | more than 30%
CCc1c(O)cc(O)c(C(=O)c2cccc(O)c2)c1CC(=O)N(CCO)CCOC [Compound 79, 2-[2-ethyl-3,5-dihydroxy-6-(3-hydroxy-benzoyl)phenyl]-N-(2-hydroxyethyl)-N-(2-methoxyethyl)-acetamide] | more than 30%
CCc1c(O)cc(O)c(C(=O)c2ccc(O)cc2)c1CC(=O)N(CCO)CCO [Compound 80, 2-[2-ethyl-3,5-dihydroxy-6-(4-hydroxy-benzoyl)phenyl]-N,N-bis(2-hydroxyethyl)acetamide] | more than 30%
CCc1c(O)cc(O)c(C(=O)c2ccc(O)cc2)c1CC(=O)N(CCO)CCOC [Compound 81, 2-[2-ethyl-3,5-dihydroxy-6-(4-hydroxy-benzoyl)phenyl]-N-(2-hydroxyethyl)-N-(2-methoxyethyl)-acetamide] | more than 30%
CCc1c(O)cc(O)c(C(=O)c2ccc(F)cc2)c1CC(=O)N1CCN(c2ccccc2)C(=O)C1 [Compound 82, 4-{2-[2-ethyl-6-(4-fluorobenzoyl)-3,5-dihydroxyphenyl]acetyl}-1-phenylpiperazin-2-one] | more than 30%
CCc1c(O)cc(O)c(C(=O)c2ccc(OC)c(O)c2)c1CC(=O)N(CCO)CCO [Compound 83, 2-[2-ethyl-3,5-dihydroxy-6-(3-hydroxy-4-methoxybenzoyl)phenyl]-N,N-bis(2-hydroxyethyl)acetamide] | more than 30%
CCc1c(O)cc(O)c(C(=O)c2ccc(OC)c(O)c2)c1CC(=O)N(CCO)CCOC [Compound 84, 2-[2-ethyl-3,5-dihydroxy-6-(3-hydroxy-4-methoxybenzoyl)phenyl]-N-(2-hydroxyethyl)-N-(2-methoxy-ethyl)acetamide] | more than 30%
CCc1c(O)cc(O)c(C(=O)c2ccc(OC)c(F)c2)c1CC(=O)N(CCO)CCO [Compound 85, 2-[2-ethyl-6-(3-fluoro-4-methoxybenzoyl)-3,5-dihydroxyphenyl]-N,N-bis(2-hydroxyethyl)acetamide] | more than 30%
CCc1c(O)cc(O)c(C(=O)c2ccc(OC)c(F)c2)c1CC(=O)N(CCO)CCOC [Compound 86, 2-[2-ethyl-6-(3-fluoro-4-methoxybenzoyl)-3,5-dihydroxyphenyl]-N-(2-hydroxyethyl)-N-(2-methoxyethyl)-acetamide] | more than 30%
CCc1c(O)cc(O)c(C(=O)c2ccc(OC(F)(F)F)cc2)c1CC(=O)N(CCO)CCO [Compound 87, 2-{2-ethyl-3,5-dihydroxy-6-[4-(trifluoro-methoxy)benzoyl]phenyl}-N,N-bis(2-hydroxyethyl)acetamide] | more than 30%
CCc1c(O)cc(O)c(C(=O)c2ccc(OC(F)(F)F)cc2)c1CC(=O)N(CCO)CCOC [Compound 88, 2-{2-ethyl-3,5-dihydroxy-6-[4-(trifluoromethoxy)benzoyl]phenyl}-N-(2-hydroxyethyl)-N-(2-methoxyethyl)acetamide] | more than 30%
CCc1c(O)cc(O)c(C(=O)c2ccc(OC)c(O)c2)c1CC(=O)N(CCOC)CCOC [Compound 89, 2-[2-ethyl-3,5-dihydroxy-6-(3-hydroxy-4-methoxybenzoyl)phenyl]-N,N-bis(2-methoxyethyl)acetamide] | more than 30%
